Results on one substance are retold here after publication PMC2764089.

Chains of the proteins cited; added tags and fusions are not shown.
UniProt P10591: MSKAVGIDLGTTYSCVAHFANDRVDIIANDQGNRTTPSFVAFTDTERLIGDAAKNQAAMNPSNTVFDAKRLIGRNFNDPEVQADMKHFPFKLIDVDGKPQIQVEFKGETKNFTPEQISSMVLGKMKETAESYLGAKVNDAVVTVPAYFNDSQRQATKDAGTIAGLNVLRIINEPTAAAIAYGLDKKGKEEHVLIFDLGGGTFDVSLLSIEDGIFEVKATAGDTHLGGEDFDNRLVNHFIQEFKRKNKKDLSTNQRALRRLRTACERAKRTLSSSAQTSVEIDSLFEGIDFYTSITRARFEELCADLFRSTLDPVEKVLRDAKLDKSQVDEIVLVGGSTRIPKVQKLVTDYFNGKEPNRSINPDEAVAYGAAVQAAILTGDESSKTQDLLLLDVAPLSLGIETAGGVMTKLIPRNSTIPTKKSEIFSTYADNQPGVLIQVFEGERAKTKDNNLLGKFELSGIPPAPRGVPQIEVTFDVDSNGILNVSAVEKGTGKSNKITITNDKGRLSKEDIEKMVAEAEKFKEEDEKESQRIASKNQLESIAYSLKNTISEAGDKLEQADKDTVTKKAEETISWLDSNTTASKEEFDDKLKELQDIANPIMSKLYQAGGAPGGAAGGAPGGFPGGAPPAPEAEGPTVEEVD

These are yes or no findings as the source states them, for the method shown. Binding seen in cells or lysates may run through a third protein. These calls come from enrichment with a bait or labelling near it, and not all partners need be listed. Tags and fused reporters may be left off the sequences shown.

The target of the assay is T1, GST-Spc105p (S. cerevisiae) (UniProt P53148).
T1 sequence: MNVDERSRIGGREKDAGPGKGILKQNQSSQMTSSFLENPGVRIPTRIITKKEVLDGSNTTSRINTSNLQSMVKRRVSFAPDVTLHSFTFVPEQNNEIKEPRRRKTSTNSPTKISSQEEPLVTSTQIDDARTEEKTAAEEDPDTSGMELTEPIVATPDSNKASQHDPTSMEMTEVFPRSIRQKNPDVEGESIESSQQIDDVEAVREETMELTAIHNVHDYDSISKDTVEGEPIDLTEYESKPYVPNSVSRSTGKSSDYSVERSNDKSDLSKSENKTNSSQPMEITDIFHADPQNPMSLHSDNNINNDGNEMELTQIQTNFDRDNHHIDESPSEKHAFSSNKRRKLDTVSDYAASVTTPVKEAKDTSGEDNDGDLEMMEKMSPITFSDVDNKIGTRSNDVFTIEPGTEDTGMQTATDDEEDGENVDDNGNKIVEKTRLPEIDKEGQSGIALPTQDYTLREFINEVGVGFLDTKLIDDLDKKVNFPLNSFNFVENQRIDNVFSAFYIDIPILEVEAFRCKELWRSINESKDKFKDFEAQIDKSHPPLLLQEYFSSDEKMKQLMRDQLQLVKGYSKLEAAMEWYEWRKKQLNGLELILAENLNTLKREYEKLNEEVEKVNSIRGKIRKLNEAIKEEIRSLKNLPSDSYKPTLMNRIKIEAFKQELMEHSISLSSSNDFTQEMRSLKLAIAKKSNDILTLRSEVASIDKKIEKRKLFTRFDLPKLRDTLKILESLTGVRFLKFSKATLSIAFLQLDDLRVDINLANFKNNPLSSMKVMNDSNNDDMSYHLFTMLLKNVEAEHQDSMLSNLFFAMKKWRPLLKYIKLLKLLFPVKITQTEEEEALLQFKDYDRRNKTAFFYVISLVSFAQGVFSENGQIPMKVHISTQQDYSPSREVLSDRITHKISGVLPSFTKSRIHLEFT
The assay is described as follows: affinity purification with mass spectrometry; GST-Spc105p (GAL1 promoter) isolated from whole yeast cell extracts on glutathione beads, washed extensively, released with Precision protease; SDS-PAGE species identified by mass spectrometry.

Turning to Ssa1p (from UniProt P10591 1-642), the binding result is “binds”.
